The assay concerns PAF-induced platelet aggregation (human platelet-rich plasma). Put plainly: PAF-induced platelet aggregation (in vitro). It is filed as cell-based. Particulars: PAF 1-5×10^-8 M, read-out: PAF Antagonism (in vitro) IC50. As for the experimental part:
Platelet-activating factor (PAF) causes aggregation of platelets by a receptor-mediated mechanism. Therefore, PAF-induced platelet aggregation provides a simple and convenient assay to screen compounds for PAF antagonism.
Blood was centrifuged at 110× g for 15 min. and the supernatant platelet-rich plasma (PRP) carefully transferred into a polypropylene tube. Platelet-poor-plasma (PPP) was prepared by centrifuging PRP at 12,000× g for 2 min. (Beckman Microfuge B). PRP was used within 3 hr. of drawing the blood.
PAF was dissolved in chloroform:methanol (1:1, v/v) at a concentration of 2 mg/ml and stored at -70° C. An aliquot of this solution was transferred to a polypropylene tube and dried under a flow of nitrogen gas. […] This stock solution was further diluted to appropriate concentrations in Hepes-saline-BSA buffer. Collagen (Sigma) and adenosine diphosphate (ADP) (Sigma) were purchased as solutions. […]
When an aggregating agent such as PAF is added to PRP, platelets aggregate. An aggregometer quantifies this aggregation by measuring and comparing light (infra-red) transmission through PPP and PRP. […] Values for inhibition were calculated by comparing rates of aggregation obtained in the absence and the presence of the compound. […]

For the compound `CCOC(=O)N1CCC(=C2c3ccc(Cl)cc3CCc3cccnc32)CC1` [Compound 1, reference compound], the IC50 (as a rule, the midpoint of a concentration-inhibition curve) was 175 µM.

The record behind these values is patent US5422351A, “Bis-benzo or benzopyrido cyclohepta piperidene, piperidylidene and piperazine compounds, compositions and methods of use” (Schering Corporation, priority 1992, dated 1995).
